Construct, isoform or probe ends are uncertain for at least one entry. Protein sequences can lack the tags named with them.
Target: T1, GST-SMA-4 MH1 domain (Caenorhabditis elegans) (UniProt P45897)
T1 sequence (looked up, limits assumed): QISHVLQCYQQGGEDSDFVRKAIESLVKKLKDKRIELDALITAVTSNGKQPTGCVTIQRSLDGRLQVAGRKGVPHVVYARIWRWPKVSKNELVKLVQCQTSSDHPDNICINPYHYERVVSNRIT
Assay: EMSA

Row | Sequence | binding result
1 | ACGGTTTCAAGGTCTGTCTCCTCGAACACG (double strand) [Probe 3 (col-p)] | binds
2 | GGTGAGACAAGCAATGAGAATAGACACACA (double strand) [Probe 4 (col-p)] | binds
